{
  "source": "PubChem BioAssay (NCATS)",
  "key": {"[1]": {"assay": "HPAF-II 24hr Apoptosis Induction qHTS against the NCATS CANVASS Library (AID 1347356)", "summary_of_the_method": "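HPAF-II cells (500/well) in DMEM + 10% FBS were treated with an 11-point compound series for 24 hours at 37 degrees C. Caspase-3/7 activity was then read by Caspase-Glo DEVD luminescence after 15 min.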"}, "[2]": {"assay": "HPAF-II 12hr Apoptosis Induction qHTS against the NCATS CANVASS Library (AID 1347358); note: potency is the fitted concentration of half-maximal effect", "summary_of_the_method": "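HPAF-II cells (500/well, DMEM + 10% FBS) were exposed to compounds for 12 hours at 37 degrees C. Caspase-3/7 activity was then read by Caspase-Glo 3/7 luminescence after 15 min at room temperature.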"}, "[3]": {"assay": "HEK293 24hr Apoptosis Induction qHTS against the NCATS CANVASS Library (AID 1347359); note: potency is the fitted concentration of half-maximal effect", "summary_of_the_method": "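HEK293 cells (500/well, DMEM + 10% FBS) were exposed to compounds in an 11-point series for 24 hours at 37 degrees C, then caspase-3/7 activity was read by Caspase-Glo DEVD luciferase luminescence after 15 min.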"}, "[4]": {"assay": "HPAF-II 18hr Apoptosis Induction qHTS against the NCATS CANVASS Library (AID 1347360); note: potency is the fitted concentration of half-maximal effect", "summary_of_the_method": "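Caspase-Glo 3/7 luminescence (DEVD substrate) after 15 min RT; HPAF-II, 500 cells/well, 18 h compound exposure at 37 degrees C, qHTS series; doxorubicin control 0.1nM - 4uM.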"}, "[5]": {"assay": "qHTS for ATAD5 Agonist screened against the NCATS CANVASS Library (AID 1347367); note: potency is the fitted concentration of half-maximal effect", "summary_of_the_method": "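Luminescence read-out: ATAD5-driven luciferase in stably transfected HEK 293T cells, which rises post-transcriptionally with DNA damage. Cells were exposed 16hr at 37C to test compound; a CellTiter-Fluor fluorescence read (1hr) measured viability first.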"}, "[6]": {"assay": "Cytotoxicity qHTS for assessment of Hepg2 cells membrane integrity screened against the NCATS CANVASS Library (AID 1347387); note: potency is the fitted concentration of half-maximal effect", "summary_of_the_method": "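HepG2 cells (2000/well) attached overnight at 37C, then received compounds in an 11-point series at 0.59 nM - 46 uM final for 5 hr. LDH release was detected fluorometrically (ex 560/em 590 nm) with CytoTox-ONE reagent after 10 min at room temperature.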"}, "[7]": {"assay": "HEK293 12hr Apoptosis Induction qHTS against the NCATS CANVASS Library (AID 1347361); note: potency is the fitted concentration of half-maximal effect", "summary_of_the_method": "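500 HEK293 cells/well; cpds pin-transferred, 11-pt conc series; 12 h, 37 degrees C/5% CO2; Caspase-Glo 3/7 added, 15 min RT dark; luminescence.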"}, "[8]": {"assay": "10-beta competent E. coli microbial cell viability qHTS against the NCATS CANVASS Library (AID 1347376)", "summary_of_the_method": "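10-beta competent E. coli (0.9 OD culture diluted to 0.2 OD) exposed to compounds in an 11-point qHTS series, incubated overnight at 37C, 5% CO2. Viability read as ATP by BacTiter-Glo luminescence after 20 min at room temperature.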"}},
  "note": "Inconclusive means that the source gave no clear call. Such entries were picked first, then a sample of the others. Where the call is inconclusive, the potency comes from a doubtful curve fit. Activity calls are given as the source filed them. Calls come from the whole dose curve; as a rule, active = well fitted curve in the direction sought with a large enough effect; inconclusive = small, poorly fitted or top-dose-only effect, or another doubt; inactive = no such curve, though single readings can be large; an effect the other way counts as inactive or inconclusive. Peptide text beside a SMILES is read from it. Tags give direction and shape of the fitted curve.",
  "data": [
    {"smiles": "O=c1cc(-c2ccc(O)cc2)oc2cc(O)c([C@@H]3OC(CO)[C@H](O)[C@@H](O)[C@H]3O)c(O)c12", "note": "(some centres not stated)", "values": [
      {"measurement": "Potency", "setting": "[1]", "value": "inactive"}
    ]},
    {"smiles": "C=C(C)C(=O)O[C@H]1C[C@H](C)[C@@H](OC(C)=O)CC[C@@]2(C)O[C@@H]2[C@H]2OC(=O)C(COC(C)=O)=C12", "values": [
      {"measurement": "Potency", "setting": "[1]", "value": "inconclusive: 11.8 µM [activator, single point]"},
      {"measurement": "Potency", "setting": "[2]", "value": "inconclusive: 11.8 µM [activator, single point]"},
      {"measurement": "Potency", "setting": "[3]", "value": "inconclusive: 11.8 µM [activator, single point]"},
      {"measurement": "Potency", "setting": "[4]", "value": "inconclusive: 11.8 µM [activator, single point]"},
      {"measurement": "Potency", "setting": "[5]", "value": "inconclusive: 8.31 µM [activator, single point]"}
    ]},
    {"smiles": "CC(C)=CCC[C@]1(C)[C@H]2CC(=O)[C@@]3(CO3)[C@@H]1C2", "values": [
      {"measurement": "Potency", "setting": "[6]", "value": "inactive"}
    ]},
    {"smiles": "CC(C)=CCC[C@@H](C)[C@@H]1CC[C@@]2(C)C[C@H]3C(C)=CC(=O)[C@@H]3/C(C=O)=C\\C[C@H]12", "values": [
      {"measurement": "Potency", "setting": "[1]", "value": "inconclusive: 26.4 µM [activator, single point]"},
      {"measurement": "Potency", "setting": "[2]", "value": "inconclusive: 29.6 µM [activator, single point]"},
      {"measurement": "Potency", "setting": "[4]", "value": "inconclusive: 29.6 µM [activator, single point]"},
      {"measurement": "Potency", "setting": "[7]", "value": "inconclusive: 33.2 µM [activator, single point]"}
    ]},
    {"smiles": "C[C@@]12CCC[C@@](C)(C(=O)O)[C@H]1C[C@@H](O)[C@@]13C[C@@H](CC[C@@H]21)[C@](C)(O)C3", "values": [
      {"measurement": "Potency", "setting": "[8]", "value": "inconclusive: 0.0066 µM [cytotoxic, full curve, poor fit]"}
    ]},
    {"smiles": "C/C=C1/C2=CCCN3C(=O)O[C@H]([C@H]1O)[C@H]23", "values": [
      {"measurement": "Potency", "setting": "[1]", "value": "inactive"},
      {"measurement": "Potency", "setting": "[8]", "value": "inconclusive: 0.001 µM [cytotoxic]"}
    ]},
    {"smiles": "COc1ccc([C@@H]2c3cc(OC)c(OC)cc3C(=O)[C@H](C)C2C)cc1OC", "note": "(some centres not stated)", "values": [
      {"measurement": "Potency", "setting": "[8]", "value": "inconclusive: 2.16 µM [rising, single point]"}
    ]},
    {"smiles": "CC[C@@H](C)[C@H]1NC(=O)C(CC(C)C)NC(=O)[C@@H](CC(C)C)NC(=O)[C@H](Cc2c[nH]c3ccccc23)NC(=O)CNC(=O)[C@@H](CC(N)=O)NC1=O", "note": "(stereo partly drawn) (HELM PEPTIDE1{G.W.[dL].[CC(C)CC(N[*:1])C(=O)[*:2]].[dI].[dN]}$PEPTIDE1,PEPTIDE1,1:R1-6:R2$$$V2.0)", "values": [
      {"measurement": "Potency", "setting": "[5]", "value": "inconclusive: 20.9 µM [activator, single point]"},
      {"measurement": "Potency", "setting": "[6]", "value": "inconclusive: 33.1 µM [rising, single point]"}
    ]}
  ]
}
